Data reported in the supplement of paper PMC10398353.
Structures can show the parent of a compound that is named as a salt. ± gives the standard deviation of the averaged measurements. The list shows a part of the results. The data scatter; read single values as rough.

tested on: Salmonella enterica serovar Typhimurium ST313 D23580; test: normalized bacterial growth (OD600 20 h minus 0 h, interquartile-mean normalized) (fraction of plate interquartile mean); higher = more bacterial growth (less inhibition); conditions: LPM (pH 5.8, low phosphate, low Mg2+), concentration: 10 µM, temperature: 37 °C

SMILES | normalized bacterial growth
CCCCCCCCCCCCCCCC(=O)NCCO [Palmitoylethanolamide] | 1.05
CN1CCN(C2=Nc3cc(Cl)ccc3Nc3ccccc32)CC1 [Clozapine] | 0.669
CCC(NC(C)C)C(O)c1ccc(O)c(O)c1 (stereo not given) [Isotharine mesylate] | 0.909
CCC(Cc1c(I)cc(I)c(N)c1I)C(=O)O (stereo not given) | 1.08
CN1CCc2cccc3c2[C@H]1Cc1ccc(O)c(O)c1-3 [Apomorphine hydrochloride hemihydrate] | 0.536
CN1CCc2cccc3c2[C@H]1Cc1ccc(O)c(O)c1-3 [R(-) Apomorphine hydrochloride hemihydrate] | 0.787
O=C1C=C2CC3(O)COc4c(ccc(O)c4O)C3=C2C=C1O (stereo not given) | 1.08
C[C@]12CC[C@@H]3c4ccc(O)cc4CC[C@H]3[C@@H]1CC[C@@H]2OC(=O)CCC1CCCC1 | 1
CO[C@@]1(NC(=O)CSCC#N)C(=O)N2C(C(=O)O)=C(CSc3nnnn3C)CS[C@@H]21 | 1.02
CO[C@@]1(NC(=O)CSCC#N)C(=O)N2C(C(=O)O)=C(CSc3nnnn3C)CS[C@@H]21 [Cefmetazole sodium] | 0.89
C[C@@H]1[C@H](O)[C@@H](C)/C=C/C=C/C=C/C=C/C=C/C=C/C=C/[C@H](O[C@@H]2O[C@H](C)[C@@H](O)[C@H](N)[C@@H]2O)C[C@@H]2O[C@](O)(C[C@@H](O)C[C@@H](O)[C@H](O)CC[C@@H](O)C[C@@H](O)CC(=O)O[C@H]1C)C[C@H](O)[C@H]2C(=O)O | 1.45 ± 0.062
COc1cc(/C=C/C(=O)c2ccc(O)cc2O)ccc1O | 1.14
CCOC(=O)C(C)(C)Oc1ccc(Cl)cc1 [Clofibrate] | 1.4
c1cnc2c(c1)ccc1cccnc12 ["1,10-Phenanthroline monohydrate"] | 0.0787
CC(C)NC[C@H](O)COc1ccc(CC(N)=O)cc1 [S(-)-Atenolol] | 1.14
CC(C)NC[C@H](O)COc1ccc(CC(N)=O)cc1 [(S)-(-)-Atenolol] | 1.27
N[C@H](CO)C(=O)O [D-Serine] | 0.994
C=CC(C)(O)CCC1C(=C)CC(O)C2C(C)(C)CCCC12C (stereo not given) | 1.64
O=S(=O)(c1cccc2cnccc12)N1CCNCC1 | 1.11
NC(Cc1cccc(-c2ccccc2CP(=O)(O)O)c1)C(=O)O (stereo not drawn) [Phenylbenzene-omega-phosphono-alpha-amino acid] | 1.04
CC(=O)N(O)CCCCCNC(=O)CCC(=O)N(O)CCCCCNC(=O)CCC(=O)N(O)CCCCCN | 0.414
C[N+]1(C)CCC[C@H]1C(=O)[O-] | 1.09
CC(C)/N=c1\cc2n(-c3ccc(Cl)cc3)c3ccccc3nc-2cc1Nc1ccc(Cl)cc1 | 0.772

SMILES | normalized bacterial growth
CCNC(=O)CC[C@H](N)C(=O)O | 1.17
C[N+](C)(C)CCCCCNCC12CC3CC(CC(C3)C1)C2 | 1.02
CCOC(=O)[C@]12CC1/C(=N\O)c1ccccc1O2 (stereo not given in full) | 1.25
CCCCC1OC(=O)C2=CCCCC21 (stereo not given) | 1.27
CC(C)(C(=O)c1cccnc1)c1cccnc1 [Metyrapone] | 1.49
NCCCCNCCCN [Spermidine trihydrochloride] | 1.1
CN1CC(=O)NC1=N | 1.04
Nc1ccc(-c2nc3ccc(-c4nc5ccc(N)cc5[nH]4)cc3[nH]2)cc1 | 0.963
COc1cc(-c2coc3cc(OC)c(OC)c(OC)c3c2=O)cc(OC)c1OC | 0.609
C[C@]12CCC3c4ccc(OC(=O)c5ccccc5)cc4CCC3C1CCC2=O (stereo not given in full) | 0.791
Cn1ccnc1S | 1.26
Cn1ccnc1S [Methimazole] | 0.962
Nc1c(Br)cc(Br)cc1CN[C@H]1CC[C@H](O)CC1 | 0.889
Nc1c(Br)cc(Br)cc1CN[C@H]1CC[C@H](O)CC1 [Ambroxol hydrochloride] | 1.19
CC(=O)NC1[C@@H](O)OC(CO)[C@@H](O)[C@H]1O[C@H](C)C(=O)O (stereo not given in full) ["Muramic acid, N-acetyl"] | 1.14
Oc1ccc(Cl)c2cccnc12 | 0.534
CN1CCc2ccccc2Cc2[nH]c3ccccc3c2CC1 | 0.888
CC(C)(Sc1cc(C(C)(C)C)c(O)c(C(C)(C)C)c1)Sc1cc(C(C)(C)C)c(O)c(C(C)(C)C)c1 | 1.15
CCN1C(=O)NC(c2ccccc2)C1=O (stereo not given) [Ethotoin] | 0.955
COc1ccccc1N1CCN(CC(O)COc2cccc3ccccc23)CC1 (stereo not given) [Naftopidil dihydrochloride] | 0.81
CN1CCCC(CC2c3ccccc3Sc3ccccc32)C1 (stereo not given) [Metixene hydrochloride] | 0.922
CN1CCC(=C2c3ccccc3CC(=O)c3sccc32)CC1 [Ketotifen fumarate] | 1.11

An excerpt of these results, as a markdown table.

| SMILES | normalized bacterial growth |
| --- | --- |
| CCOC(=O)[C@]12CC1/C(=N\O)c1ccccc1O2 (stereo not given in full) | 1.25 |
| CCCCC1OC(=O)C2=CCCCC21 (stereo not given) | 1.27 |
| CC(C)(C(=O)c1cccnc1)c1cccnc1 [Metyrapone] | 1.49 |
| NCCCCNCCCN [Spermidine trihydrochloride] | 1.1 |
| CN1CC(=O)NC1=N | 1.04 |
| Nc1ccc(-c2nc3ccc(-c4nc5ccc(N)cc5[nH]4)cc3[nH]2)cc1 | 0.963 |
| COc1cc(-c2coc3cc(OC)c(OC)c(OC)c3c2=O)cc(OC)c1OC | 0.609 |
| C[C@]12CCC3c4ccc(OC(=O)c5ccccc5)cc4CCC3C1CCC2=O (stereo not given in full) | 0.791 |
